A short description of the assay: qHTS Assay for Lipid Storage Modulators in Drosophila S3 Cells.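 For cell number change: cells counted by Cell Tracker Red CMTPX staining in the red channel.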 The conditions noted are these: BODIPY lipid droplet fluorescence, 18-24 h; for cell number change: measured here: cell count max response, cells fed with added oleic acid. A digest of the protocol:
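Drosophila S3 cells loaded with oleic acid (400 uM, as added) and compounds at several concentrations; lipid droplets imaged by 488-nm laser-scanning cytometry, 500–530 nm intensity and object ratio to cell channel. Percent activity normalized to 20 uM Triacsin C.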
In general terms: In qHTS, concentration-response curves come from the screen itself.

The mark [1] stands for this setting: measured here: lipid fluorescence (Fed channel) AC50, cells fed with added oleic acid.
Setting [2] is: measured here: cell number channel AC50, cells fed with added oleic acid.

Some of the results follow. Shown are side measurements of this screen, not its main read-out; they come without a call. The list favours compounds with an active or inconclusive main result. Words in brackets tell the shape of the fitted curve; partial curves, single points and poor fits give uncertain potencies.

Our source for the cell number change and AC50 values is PubChem BioAssay AID2685 (National Center for Advancing Translational Sciences (NCATS), 2010).

As a reminder, the AC50 is the concentration giving half of the maximal activity seen. Low values mean activity at low concentration, high ones activity only at high concentration. `Oc1cccc(/C=N/Nc2cccc3cccnc23)c1`: the cell number change is -13.9%. Moreover, under setting [1], the AC50 is 0.731 µM [falling, full curve, poor fit].

For the molecule `CCc1ccc(-c2nn(-c3ccccc3)cc2C2SCC(=O)N2Cc2ccco2)cc1` (stereo not given), the cell number change was 2.43%. Also, the AC50 under setting [1] is 6.51 µM [falling, single point].

With `Cc1c(CCO)c(=O)n(-c2ccccc2)n1S(=O)(=O)c1ccc([N+](=O)[O-])cc1`, the cell number change was -2.62%. Under setting [2], the AC50 is 6.51 µM [rising, single point]. The AC50 under setting [1] was 4.11 µM [rising, partial curve, poor fit].

Turning to `CCOCCCNCc1cccc(OCc2ccc(F)cc2)c1`, the cell number change was found to be 18.3%. Further, under setting [1], the AC50 is 16.4 µM [rising, partial curve].

As to `CCOC(=O)c1cc(-c2cccs2)nn1CCC#N`, under setting [1], the AC50 was 0.13 µM [falling, full curve, poor fit].

`O=C(c1cc(Cl)ccc1OCc1ccccc1)N1CCOCC1`: the cell number change was -2.48%. Also, the AC50 under setting [2] was 6.51 µM [rising, single point].

For the molecule `Cc1ccccc1NC(=O)COC(=O)C1CC2CCCC(C1)C2=O` (stereo not given), the cell number change is -2.92%. In addition, the AC50 under setting [1] is 6.51 µM [falling, single point].

In the case of `O=C(NC1CC1)C1=C[C@@H](c2coc3ccccc3c2=O)C[C@@H](OCc2ccc(CO)cc2)O1`, the AC50 under setting [1] was 23.1 µM [rising, partial curve].

For the molecule `COc1ccc(S(=O)(=O)Nc2cc3c4c(c2)CC(=O)N4CCC3)cc1`, the AC50 under setting [2] was 0.103 µM [rising, full curve, poor fit].

As to `NC(N)=N/N=C/c1ccc(OCc2ccccc2)c(OCc2ccccc2)c1`, the cell number change is 12.8%. Besides, the AC50 under setting [1] was 23.1 µM [falling, single point].

With `CCc1ccc(-c2cc(C)no2)cc1S(=O)(=O)N1CCOc2ccc(C)cc21`, the cell number change was -106%. Also, the half-maximal activity concentration (AC50) under setting [2] was 16.4 µM [falling, partial curve]. The AC50 under setting [1] is 2.31 µM [falling, full curve].

As for `Cc1cc(C)cc(N(CC(=O)NC2CC3CCC2C3)S(C)(=O)=O)c1` (stereo not given), the cell number change is 5.34%. Moreover, the AC50 under setting [2] was 0.731 µM [falling, full curve, poor fit]. For the same molecule, under setting [1], the AC50 is 0.651 µM [falling, full curve].

Take `C=CCN1C(=O)c2ccc(C(=O)N(C)CC(=O)Nc3ccccc3Cl)cc2C1=O`: the AC50 under setting [2] was 0.517 µM [rising, full curve].

Take `O=C(c1ccccc1Cl)N1CCNCC1`: the cell number change is -34.7%. Besides, under setting [2], the AC50 was 4.61 µM [falling, partial curve].

Regarding `CCCCCN(C(=O)CSc1n[nH]c(-c2ccc(C)cc2)n1)c1c(N)n(CCCC)c(=O)[nH]c1=O`, the cell number change was -9.78%. Further, the AC50 under setting [1] is 5.17 µM [falling, single point].

On to `CC1=Nn2c(nnc2-c2ccccn2)SC1`, for which the cell number change is -11.4%. In addition, the AC50 under setting [2] was 0.461 µM [falling, full curve]. In addition, the concentration at half-maximal activity (AC50) under setting [1] was 6.51 µM [falling, partial curve, poor fit].

In the case of `Cc1ccc(C2CC2C(=O)NNC(=S)Nc2ccc(Cl)cc2)cc1` (stereo not given), the AC50 is, setting by setting: under setting [2], 3.26 µM [falling, partial curve]; under setting [1], 2.31 µM [falling, full curve].

As to `COc1cccc(CC(=O)Nc2cc(S(=O)(=O)N3CCOCC3)ccc2N2CCN(C)CC2)c1`, the cell number change stood at 5.78%. The AC50 under setting [1] was 0.231 µM [rising, full curve, poor fit].

In the case of `O=C(NCC(=O)N1CCN(C(=O)c2ccco2)CC1)c1ccc(Br)cc1`, the cell number change stood at 1.39%. Besides, the AC50 under setting [1] is 1.64 µM [rising, partial curve].

As for `Cc1ccc(C2(C)NC(=O)N(CC(=O)N3CCN(S(=O)(=O)c4ccc(Cl)s4)CC3)C2=O)cc1` (stereo not given), the cell number change is -12.7%. For the same molecule, the AC50 under setting [1] was 18.4 µM [falling, single point].

For `O=[N+]([O-])c1c(NCCCO)cc(SCc2ccco2)c2nonc12`, the cell number change is -31.8%. Moreover, the AC50 under setting [2] was 32.6 µM [falling, single point]. Under setting [1], the AC50 was 0.103 µM [falling, full curve, poor fit].

With `Cc1nn(CC(=O)NCCCN2CCC(N3CCCCC3)CC2)c(=O)c2cc(-c3ccccc3)nn12`, the cell number change amounted to 16.4%. In addition, the AC50 under setting [2] was 0.461 µM [rising, full curve, poor fit].

Consider `O=C(c1cc(-c2ccccn2)nc2ccc(Br)cc12)N1CCc2ccccc2C1`, for which, under setting [2], the AC50 was 2.91 µM [rising, partial curve].

For the molecule `CS(=O)(=O)c1ccccc1C(=O)Nc1cccc2ncccc12`, the cell number change is -0.794%. Under setting [2], the AC50 is 0.082 µM [rising, full curve, poor fit].

In the case of `COc1ccccc1-c1ccc(SCc2cccc(C)c2)nn1`, the cell number change is -69.1%. Under setting [2], the AC50 is 2.59 µM [falling, partial curve, poor fit]. Further, under setting [1], the AC50 is 1.64 µM [falling, full curve].

On to `O=C(c1ccc(C(F)(F)F)cc1)C1CCCN(C(=O)c2csnn2)C1` (stereo not given), for which the cell number change was determined as 22.6%.

Consider `COc1ccccc1N1CCN(C2CCCN(C(=O)C3=NN(C)C(=O)CC3)C2)CC1` (stereo not given), for which the cell number change worked out at 23.2%.

Turning to `CCOC(=O)C(C)Sc1nc2c([nH]c3ccccc32)c(=O)n1C` (stereo not given), the cell number change is -57.4%. Besides, the AC50 under setting [2] is 16.4 µM [falling, single point]. Besides, under setting [1], the AC50 is 16.4 µM [falling, single point].

For `Cc1nnc(SCC(=O)Nc2c(C)n(C)n(-c3ccccc3)c2=O)n1Cc1ccccc1`, the cell number change stood at 28.4%.

`CSc1ccccc1C(=O)NC1CCCN(c2ccc(C(F)(F)F)cn2)C1` (stereo not given): the cell number change came out at 6.12%. In addition, under setting [1], the AC50 was 6.51 µM [rising, partial curve, poor fit].

Turning to `CCN(C(=O)Cc1c(C(=O)O)n(C)c2ccccc12)c1cc(OC)ccc1OC`, the AC50 under setting [1] was 29.1 µM [falling, single point].

Regarding `O=C(NCc1cccnc1)c1nc(-c2ccc(C(F)(F)F)cc2)no1`, the cell number change is -0.339%. Besides, under setting [2], the AC50 was 0.00461 µM [rising, full curve, poor fit]. In addition, the AC50 under setting [1] is 32.6 µM [rising, single point].

Turning to `Cc1ccc(CNc2ccc(Cl)cc2[N+](=O)[O-])cc1`, the cell number change is -26.8%. Also, the AC50 under setting [1] was 32.6 µM [falling, single point].

Regarding `O=C(Cc1cccs1)N1CCN=C1SCc1cccc(F)c1`, the cell number change was -30%. Further, under setting [2], the AC50 was 4.11 µM [rising, single point]. Under setting [1], the AC50 was 1.3 µM [rising, partial curve].

For `CCOC(=O)C1(CCOc2ccccc2)CCN(CC2CC2)CC1`, the cell number change worked out at 26.7%. Besides, the AC50 under setting [1] was 29.1 µM [rising, single point].

`COc1ccccc1COCC(O)CN1CCN(S(=O)(=O)c2cccc(F)c2)CC1` (stereo not given): the cell number change was -4.24%. Besides, the AC50 under setting [2] was 1.84 µM [rising, partial curve]. In addition, the AC50 under setting [1] is 2.59 µM [rising, partial curve].

For `COc1ccc(CSc2n[nH]c(C)n2)cc1[N+](=O)[O-]`, under setting [1], the AC50 is 18.4 µM [rising, single point].

As for `CCC(c1nnnn1Cc1cccs1)N1CCN(c2nc3ccccc3s2)CC1` (stereo not given), the cell number change was -9%.

As to `NC(=O)c1ccc(NC(=O)C2CC(=O)N(c3ccc4c(c3)OCCO4)C2)cc1` (stereo not given), the cell number change was 26.8%. Besides, under setting [1], the AC50 is 0.411 µM [rising, full curve].

As to `CCC(=O)NNC(=O)CCC(=O)Nc1ccc(C)cc1C`, the AC50 by setting is: under setting [2], 6.51 µM [rising, single point]; under setting [1], 0.651 µM [rising, single point].

Take `COCCNC(=O)c1cccc(NC(=O)C2=C(C)OCCS2)c1`: the AC50 under setting [2] is 1.64 µM [rising, partial curve, poor fit] and the AC50 under setting [1] was 1.84 µM [rising, single point].

`CCCNC(=O)c1ccc(CNc2c(N3CCC(C(=O)OCC)CC3)c(=O)c2=O)cc1`: the cell number change was determined as 5.44%.

`O=C1CC(c2ccccc2)c2c(O)cc(O)cc2O1` (stereo not given): the cell number change was found to be 38.1%. In addition, under setting [2], the AC50 was 29.1 µM [rising, single point].

`CC(C)c1nc(C#N)c(NN)o1`: the cell number change was -2.12%. Further, the AC50 under setting [1] is 0.058 µM [falling, full curve].

Take `Cc1cccc(/C=N/n2c(-c3cc(-c4ccccc4)n[nH]3)n[nH]c2=S)c1`: the cell number change is -78%. The AC50 under setting [2] is 29.1 µM [falling, partial curve]. Besides, the AC50 under setting [1] is 25.9 µM [falling, partial curve].

In the case of `O=C(O)CCC1COc2ccccc2O1` (stereo not given), the AC50 under setting [1] is 29.1 µM [falling, single point].

Take `Cc1cccc(-c2nc(CNC(=O)c3ccco3)cs2)c1`: the cell number change was -26.5%. The AC50 under setting [1] was 11.6 µM [falling, single point].

In the case of `O=C1NN(c2ccc(F)cc2)C(=O)/C1=C\C=C\c1ccco1`, the cell number change was -17.3%. Also, under setting [1], the AC50 is 0.164 µM [falling, full curve, poor fit].

As to `COc1ccc(S(=O)(=O)N(C)CC(=O)NCc2cccnc2)cc1`, the cell number change is -14.2%. The AC50 under setting [1] is 0.00461 µM [falling, full curve].

Turning to `CCOc1ccc(C2C(C(=O)c3ccco3)=C(O)C(=O)N2CCN2CCOCC2)cc1` (stereo not given), the cell number change was 1.91%.

Turning to `O=C(CCC(=O)N(CC(=O)NC1CCCCC1)Cc1ccc(F)cc1)Nc1nccs1`, the AC50 under setting [1] was 29.1 µM [rising, single point].

As to `COc1cc(NS(=O)(=O)c2ccc(NC(=O)CN3C(=O)c4ccccc4C3=O)cc2)ncn1`, the cell number change was -30%. The AC50 under setting [2] is 0.82 µM [falling, full curve]. For the same molecule, under setting [1], the AC50 was 3.66 µM [falling, full curve].

Regarding `O=[N+]([O-])c1ccc(CNC2CCCc3ccccc32)cc1` (stereo not given), the cell number change was -3.57%.

Regarding `CCN1CCN(Cc2ccc(NC(=O)c3ccc(C)c(NC(=O)c4cc(-c5ccc(Br)cc5)n[nH]4)c3)cc2C(F)(F)F)CC1`, the cell number change was -0.106%. Besides, the AC50 under setting [1] is 9.2 µM [falling, single point].

`Cc1ccc(Cn2c(Sc3ncccn3)nc3c2c(=O)[nH]c(=O)n3C)cc1`: the AC50 under setting [1] was 4.11 µM [falling, partial curve].

For `O=C(Nc1ccc2c(c1)CCCN2C(=O)c1cccs1)c1ccccc1`, the cell number change was -8.06%.

With `O=C(NCc1ccc(F)cc1)C1CCCN(S(=O)(=O)c2cccc3nsnc23)C1` (stereo not given), the half-maximal activity concentration (AC50) under setting [2] is 1.3 µM [rising, partial curve] and the AC50 under setting [1] is 9.2 µM [rising, partial curve].

As for `Cc1c(C(=O)C(=O)N2c3ccc(F)cc3CCC2C)c2ccccc2n1C` (stereo not given), the cell number change is -15.1%. For the same molecule, the AC50 under setting [1] is 18.4 µM [falling, single point].
